In US20210069351A1, “METHOD FOR SCREENING PAIN INHIBITING SUBSTANCE” (priority 2017, published 2021):

Assay: In vitro microdialysis, recovery rate of CMA 7 microdialysis probe
Settings: flow rate 1.0 ul/min, 30 min
[1] = actual concentration 50 ng/mL in aCSF
[2] = actual concentration 1000 ng/mL in aCSF
[3] = actual concentration 5000 ng/mL in aCSF
[4] = actual concentration 8000 ng/mL in aCSF

Compound	microdialysate concentration (actual concentration 10 ng/mL in aCSF)	microdialysate concentration [1]	microdialysate concentration [2]	microdialysate concentration [3]	microdialysate concentration [4]	microdialysate concentration (actual concentration 100 ng/mL in aCSF)
NCCCC(=O)O [GABA, γ-aminobutyric acid]	2.0 ng/mL	15.0 ng/mL	189.0 ng/mL	900.0 ng/mL	1,480.0 ng/mL	–
N[C@@H](CCC(=O)O)C(=O)O [Glutamate, glutamate]	–	1.0 ng/mL	50.0 ng/mL	199.0 ng/mL	317.0 ng/mL	3.9 ng/mL
